Measured values from the supplement of paper PMC12889115.
The other results are listed elsewhere or left out. These are raw signals, not scaled to a control.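 Primary screen: polymyxin B was added at a level permeabilizing Salmonella outer membranes while sparing inner membranes. DMSO wells, both with and without polymyxin B, established maximum growth. Plate-to-plate variation meant each plate was ranked on its own, and the lowest-OD600 compounds were selected as hits.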

Tested on: Salmonella enterica serovar Typhimurium SL1344
Experiment: bacterial growth OD600 after 18 h with compound and polymyxin B; higher = more bacterial growth (less inhibition)
Conditions: 50 µM, Mueller-Hinton broth

Row | Structure (SMILES) | bacterial growth OD600 (polymyxin B 0.75 µg/mL) | bacterial growth OD600 (polymyxin B 1 µg/mL)
1 | COCCN1CCN(C(=O)CC2(c3ccccc3C)CC(=O)N(Cc3ccncc3)C2=O)CC1 (stereo unspecified) | 0.881 | –
2 | CCOc1ccccc1CN1CCN(Cc2cnn(CC)c2)CC1CCO (stereo unspecified) | – | 0.995
3 | CC(C)(C)CN1CCC(C2CCN(C(=O)c3csnn3)CC2)C1 (stereo unspecified) | 0.802 | –
4 | CCN(CC)CC(O)COc1ccc(CN2CCCN(C(C)=O)CC2)cc1OC (stereo unspecified) | 0.858 | –
5 | CCCCN(Cc1ccccc1)C(=O)c1cc(NC(C)=O)c2c(c1)ncn2CCc1ccccn1 | 0.801 | –
6 | O=C(NC1CCCCCC1)C1CCCN(C2CCN(C(=O)C3CC3)CC2)C1 (stereo unspecified) | – | 0.853
7 | CN(CC1(O)CCCN(Cc2ccc(F)c(F)c2)C1=O)C1CCOCC1 (stereo unspecified) | – | 1.04
8 | COc1ccc(OCc2cc(C(=O)N3CCCCCCC3)n[nH]2)c(Cl)c1 | 0.526 | –
9 | CCOC(=O)CN(C)c1ccc(-c2nc(Cc3ccc(OC)cc3)no2)cn1 | – | 0.775
10 | CC(C)Cc1nc2cc(NS(=O)(=O)N(C)C)cc(C(=O)N3CCCCC3c3cccnc3)c2n1C (stereo unspecified) | 0.846 | –
11 | CCN1CCCC(CCC(=O)NCc2ccc(OC)cc2OC)C1 (stereo unspecified) | – | 1.08
12 | CCn1cc(CN2CCCC(C(=O)c3ccc4cc(OC)ccc4c3)C2)c(C)n1 (stereo unspecified) | – | 0.749
13 | CN(C)c1ncccc1CNS(=O)(=O)c1cccc(F)c1 | – | 0.96
14 | CCOC(=O)C1(CCc2ccccc2)CCCN(C(=O)C2=C(C)OCCO2)C1 (stereo unspecified) | – | 0.723
15 | C#CCN(CC=C)C(=O)c1cc(OC)ccc1OC1CCN(C(C)=O)CC1 | – | 0.974
16 | CC(C)Cc1nc2cc(NS(=O)(=O)N(C)C)cc(C(=O)NCC(C)Oc3cccnc3)c2n1C (stereo unspecified) | 0.766 | –

Looked up above.
In bacterial growth OD600 (polymyxin B 0.75 µg/mL), CC(C)Cc1nc2cc(NS(=O)(=O)N(C)C)cc(C(=O)N3CCCCC3c3cccnc3)c2n1C (stereo unspecified) reads 0.846
In bacterial growth OD600 (polymyxin B 1 µg/mL), CCOC(=O)CN(C)c1ccc(-c2nc(Cc3ccc(OC)cc3)no2)cn1 reads 0.775

(list continues)

Row | Structure (SMILES) | bacterial growth OD600 (polymyxin B 0.75 µg/mL) | bacterial growth OD600 (polymyxin B 1 µg/mL)
17 | Cn1cc(CCC(=O)NC2CC(=O)N(Cc3ccccc3Cl)C2)cn1 (stereo unspecified) | – | 0.92
18 | O=C1CCCN1CCCC(=O)N1CCCC(CCc2ccccc2)C1 (stereo unspecified) | 0.853 | –
19 | Clc1ccc(CN2CCC(C3CCN(Cc4ncc[nH]4)CC3)C2)cc1 (stereo unspecified) | 0.777 | –
20 | COc1cc(=O)n2c(c1C(=O)N(C)Cc1nonc1C)CCN(Cc1cccc3cccnc13)CC2 | 0.81 | –
21 | O=C(c1cc(COc2cccc(C(F)(F)F)c2)[nH]n1)N1CCCC(CO)C1 (stereo unspecified) | 0.812 | –
22 | COc1ccccc1C1(CC(=O)N2CCC(C(O)c3cccs3)CC2)CC(=O)N(C)C1=O (stereo unspecified) | 0.828 | –
23 | O=C(NCc1ccc2c(c1)OCO2)C1CCC(=O)N(CCN2CCOCC2)C1 (stereo unspecified) | – | 1.2
24 | Cc1c(CC(=O)NCC(F)(F)F)c2c(n1Cc1ccccc1)CCCC2=O | – | 1.12
25 | O=C1O[C@@H]2CN(Cc3c[nH]cn3)C[C@@H]2N1CCCc1ccc(F)cc1 | 0.895 | –
26 | Cc1ccc(F)cc1CNC(=O)c1cc(CN2CCOCC2)on1 | 0.841 | –
27 | C=CCNC(=O)c1coc(COc2cccc3cnccc23)n1 | – | 0.845
28 | COc1ccc(/C=C/C(=O)N2CCC3(CC2)CC3C(=O)N(C)Cc2nonc2C)cc1 (stereo unspecified) | 1.02 | –
29 | COCCCC1CCN(C(=O)c2ccc(OC3CCN(C(=O)C4CC4)CC3)cc2)CC1 | – | 0.916
30 | CCOC(=O)N1CCC(N2CCOc3ccc(CN4CCCCC4C(=O)OC)cc3C2)CC1 (stereo unspecified) | 0.769 | –
31 | Cc1ccc(Oc2ncccc2CNCc2c[nH]cn2)c(F)c1F | – | 1.11
